Data as given in PubChem BioAssay AID504744 (Drosophila RNAi Screening Center, 2011)

Screen: 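Identify dsRNAs that increase or decrease phospho-dAkt after insulin treatment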 (primary screen)
Cell system: Drosophila Kc167 cells
Reagents: long dsRNA against Drosophila genes, 250 ng dsRNA per well of a 384-well plate
Timing: 3 days of knock-down, then overnight serum-free starvation before stimulation
Challenge: bovine insulin at 387 nM for 10 minutes after 12 h without serum
Detection: 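In-cell antibody fluorescence for phospho-dAkt in each well over DNA-dye signal, with log2 residuals expressed as z-scores adjusted for cell count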
Active means: 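Under insulin, a gene counts as a hit if the average z-score of two replicates lies above 2.5 or below -2.5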
The screen tested about 23,000 reagents; this is a random part of those that have a named target and a result. Of all reagents, 98 (0.43%) got an active call. 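Only hit calls are given; the phospho-dAkt signals, z-scores and hit direction were not deposited.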 The numbers tell different reagents against one gene apart. A plus sign joins genes that one reagent is predicted to hit.

| Target gene | reagent no. | call |
| --- | --- | --- |
| sty | 1 | inactive |
| CG17230 | 1 | inactive |
| CG8321 | 1 | inactive |
| CG17085 (retired record) | 1 | inactive |
| CG17085 (retired record) | 2 | inactive |
| Cyp4d1 | 1 | inactive |
| Cyp4d1 | 2 | inactive |
| CG34202 | 1 | inactive |
| GstT3 | 1 | inactive |
| Cndp2 | 1 | inactive |
| CG8539 | 1 | inactive |
| CG8539 | 2 | inactive |
| CG5039 | 1 | inactive |
| CG13369 | 1 | inactive |
| Ir94d | 1 | inactive |
| enc | 1 | inactive |
| CG30048 | 1 | inactive |
| Rpt3R | 1 | inactive |
| CG4770 | 1 | inactive |
| Uch-L5 | 1 | inactive |
| p53 | 1 | inactive |
| Tim10 + CG42497 | 1 | inactive |
| CG33281 | 1 | inactive |
| Bfc | 1 | inactive |
| CG14797 | 1 | inactive |
| lig | 1 | inactive |
| lig | 2 | inactive |
| modSP | 1 | inactive |
| modSP | 2 | inactive |
| modSP | 3 | inactive |
| Edem1 | 1 | inactive |
| CG42268 | 1 | inactive |
| CG42268 | 2 | inactive |
| CG42268 | 3 | inactive |
| Gr36b | 1 | inactive |
| LysE | 1 | inactive |
| CG32457 | 1 | inactive |
| CG32457 | 2 | inactive |
| CG31445 | 1 | inactive |
| CG3604 | 1 | inactive |
| TTLL12 | 1 | inactive |
| CG34462 | 1 | inactive |
| CG31204 | 1 | inactive |
| ric8b + ric8a | 1 | inactive |
| ktub | 1 | inactive |
| CG1888 | 1 | inactive |
| CG12075 | 1 | inactive |
| CG13155 | 1 | inactive |
| Lgr1 | 1 | inactive |
| nSyb | 1 | inactive |
| CG34447 | 1 | inactive |
| CG8010 | 1 | inactive |
| CG18754 | 1 | inactive |
| CG42615 | 1 | inactive |
| CG31705 | 1 | inactive |
| spn-F | 1 | inactive |
| CG42512 + CG32573 | 1 | inactive |
| CG42512 + CG32573 | 2 | inactive |
| CG42512 + CG32573 | 3 | inactive |
| CG15544 | 1 | inactive |
| Dscam2 | 1 | inactive |
| Dscam2 | 2 | inactive |
| Dscam2 | 3 | inactive |
| Dscam2 | 4 | inactive |
| Dscam2 | 5 | inactive |
